The data set in a line: general procedure: Boc solid-phase peptide synthesis. As to conditions: whole synthesis.

No end group written: not given here. *: point of attachment. Boc = CC(C)(C)OC(=O)*

As to Boc-PHPFKLLVF, under “HPLC, scale of the general procedure 2 mmole”, the “final HPLC purity” value was determined as 91%. Also, the crude mass (scale 2 mmole) is 1.76 g.
